Experimental findings from patent US9969674B2, “MMF-derivatives of ethyleneglycols” (RATIOPHARM GMBH, priority 2014, dated 2018) are described below.

This series relates to Caco-2 monolayers. Conditions: human, Caco-2, 250 μM. As to the method:
The membrane permeability was investigated in Caco-2 monolayers. DMF was investigated in a separate experiment for comparison.
Based on the assumption that in vivo, the intact molecules will be pre-systemically metabolized, the permeability test was performed only in the apical→basolateral direction. The test concentration in the apical medium was 250 μM. […] Sampling time points were 15, 45 and 90 min.

Take `CC(C)NCC(O)COc1ccc(CC(N)=O)cc1` (stereo not shown) [Atenolol, atenolol]: the “Papp × 10^−6 [cm/sec] mean ± s.d.” value is 0.3 ± 0.1 10^−6 cm/sec.
